# Assay results published in the supplement of paper PMC10849652.
# Amino acid sequences for entries named in this document (tags omitted). A change or cut given only in a name is not applied to a line headed by its entry.
# UniProt O00311: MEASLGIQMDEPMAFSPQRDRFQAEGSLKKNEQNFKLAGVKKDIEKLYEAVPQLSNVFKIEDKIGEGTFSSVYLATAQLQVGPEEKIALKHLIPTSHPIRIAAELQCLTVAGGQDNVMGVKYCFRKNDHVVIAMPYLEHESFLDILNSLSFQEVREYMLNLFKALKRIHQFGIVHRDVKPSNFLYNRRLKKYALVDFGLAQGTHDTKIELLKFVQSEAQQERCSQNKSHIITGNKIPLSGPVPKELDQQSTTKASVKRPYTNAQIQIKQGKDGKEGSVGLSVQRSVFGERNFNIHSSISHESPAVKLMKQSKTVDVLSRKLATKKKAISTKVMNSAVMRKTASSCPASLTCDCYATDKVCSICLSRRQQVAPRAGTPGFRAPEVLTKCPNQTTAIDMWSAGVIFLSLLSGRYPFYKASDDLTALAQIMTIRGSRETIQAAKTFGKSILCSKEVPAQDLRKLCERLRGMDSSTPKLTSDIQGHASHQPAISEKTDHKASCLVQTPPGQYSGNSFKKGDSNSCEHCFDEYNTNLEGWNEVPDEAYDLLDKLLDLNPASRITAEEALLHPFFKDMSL
# UniProt Q9Y232: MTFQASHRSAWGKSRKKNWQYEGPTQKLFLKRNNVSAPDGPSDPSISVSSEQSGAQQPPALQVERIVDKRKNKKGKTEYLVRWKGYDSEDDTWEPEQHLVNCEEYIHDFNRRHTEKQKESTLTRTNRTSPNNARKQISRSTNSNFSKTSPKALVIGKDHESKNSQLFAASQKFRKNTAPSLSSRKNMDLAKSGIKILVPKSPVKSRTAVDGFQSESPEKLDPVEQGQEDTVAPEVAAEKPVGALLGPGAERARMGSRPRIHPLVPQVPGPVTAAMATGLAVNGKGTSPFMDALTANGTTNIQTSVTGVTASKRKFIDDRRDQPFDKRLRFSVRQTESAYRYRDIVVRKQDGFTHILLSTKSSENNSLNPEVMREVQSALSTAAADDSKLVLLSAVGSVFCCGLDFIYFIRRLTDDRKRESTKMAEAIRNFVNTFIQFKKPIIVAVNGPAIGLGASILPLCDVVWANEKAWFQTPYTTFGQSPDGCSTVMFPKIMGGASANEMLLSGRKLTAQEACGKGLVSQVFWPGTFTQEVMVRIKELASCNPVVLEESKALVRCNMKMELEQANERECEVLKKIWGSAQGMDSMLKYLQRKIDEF
# UniProt O75956: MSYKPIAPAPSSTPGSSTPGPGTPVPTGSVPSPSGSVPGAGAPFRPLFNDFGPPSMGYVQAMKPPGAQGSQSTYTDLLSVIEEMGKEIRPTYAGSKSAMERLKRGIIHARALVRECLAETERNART
# UniProt Q9C0F1: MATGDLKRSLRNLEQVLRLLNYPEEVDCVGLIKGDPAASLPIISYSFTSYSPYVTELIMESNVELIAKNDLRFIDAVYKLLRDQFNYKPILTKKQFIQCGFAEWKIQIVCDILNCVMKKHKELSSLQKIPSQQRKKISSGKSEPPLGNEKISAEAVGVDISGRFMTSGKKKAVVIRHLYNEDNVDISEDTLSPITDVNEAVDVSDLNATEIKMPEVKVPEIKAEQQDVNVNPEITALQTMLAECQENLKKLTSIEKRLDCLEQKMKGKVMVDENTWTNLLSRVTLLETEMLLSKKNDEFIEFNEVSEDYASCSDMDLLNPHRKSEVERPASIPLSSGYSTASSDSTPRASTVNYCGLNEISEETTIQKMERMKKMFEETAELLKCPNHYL
# UniProt O75794: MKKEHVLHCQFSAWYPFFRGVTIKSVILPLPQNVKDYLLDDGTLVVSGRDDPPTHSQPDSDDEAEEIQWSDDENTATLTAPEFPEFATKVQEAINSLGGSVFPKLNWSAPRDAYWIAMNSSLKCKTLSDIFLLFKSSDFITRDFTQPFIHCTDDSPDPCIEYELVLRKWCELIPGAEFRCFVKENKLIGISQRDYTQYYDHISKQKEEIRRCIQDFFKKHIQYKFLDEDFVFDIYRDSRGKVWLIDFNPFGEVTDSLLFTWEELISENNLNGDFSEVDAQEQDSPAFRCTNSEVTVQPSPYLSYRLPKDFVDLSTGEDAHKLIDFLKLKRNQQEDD
# UniProt O14519: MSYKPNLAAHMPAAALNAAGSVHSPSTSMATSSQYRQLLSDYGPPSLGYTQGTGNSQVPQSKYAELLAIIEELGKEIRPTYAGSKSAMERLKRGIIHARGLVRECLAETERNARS
# UniProt Q8TAP6: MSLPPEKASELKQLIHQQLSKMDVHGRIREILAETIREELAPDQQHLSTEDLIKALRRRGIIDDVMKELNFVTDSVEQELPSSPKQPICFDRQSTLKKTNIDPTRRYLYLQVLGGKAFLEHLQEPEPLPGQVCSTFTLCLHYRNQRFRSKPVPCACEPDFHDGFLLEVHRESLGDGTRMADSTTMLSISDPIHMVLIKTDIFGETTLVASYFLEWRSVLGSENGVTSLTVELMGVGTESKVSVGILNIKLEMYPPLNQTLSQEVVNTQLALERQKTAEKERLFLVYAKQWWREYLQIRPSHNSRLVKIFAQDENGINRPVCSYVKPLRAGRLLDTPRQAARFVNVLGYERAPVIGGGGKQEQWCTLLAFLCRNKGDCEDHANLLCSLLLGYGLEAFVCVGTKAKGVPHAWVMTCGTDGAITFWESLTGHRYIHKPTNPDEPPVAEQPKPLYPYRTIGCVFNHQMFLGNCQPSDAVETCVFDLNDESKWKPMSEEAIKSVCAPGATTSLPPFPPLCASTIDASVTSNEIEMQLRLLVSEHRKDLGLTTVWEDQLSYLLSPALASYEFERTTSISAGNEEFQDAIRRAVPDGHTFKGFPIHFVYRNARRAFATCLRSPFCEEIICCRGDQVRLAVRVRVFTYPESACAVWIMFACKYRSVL
# UniProt Q00534, whole entry, looked up: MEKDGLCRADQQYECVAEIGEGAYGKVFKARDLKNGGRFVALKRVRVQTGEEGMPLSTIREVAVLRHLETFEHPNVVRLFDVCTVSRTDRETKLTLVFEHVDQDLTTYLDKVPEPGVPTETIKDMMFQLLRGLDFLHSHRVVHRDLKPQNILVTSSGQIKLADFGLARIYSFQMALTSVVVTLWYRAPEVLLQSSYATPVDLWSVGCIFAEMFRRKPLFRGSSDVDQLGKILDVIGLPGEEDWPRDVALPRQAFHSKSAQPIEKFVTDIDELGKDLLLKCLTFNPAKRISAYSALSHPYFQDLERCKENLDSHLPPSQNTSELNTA
# UniProt Q00537: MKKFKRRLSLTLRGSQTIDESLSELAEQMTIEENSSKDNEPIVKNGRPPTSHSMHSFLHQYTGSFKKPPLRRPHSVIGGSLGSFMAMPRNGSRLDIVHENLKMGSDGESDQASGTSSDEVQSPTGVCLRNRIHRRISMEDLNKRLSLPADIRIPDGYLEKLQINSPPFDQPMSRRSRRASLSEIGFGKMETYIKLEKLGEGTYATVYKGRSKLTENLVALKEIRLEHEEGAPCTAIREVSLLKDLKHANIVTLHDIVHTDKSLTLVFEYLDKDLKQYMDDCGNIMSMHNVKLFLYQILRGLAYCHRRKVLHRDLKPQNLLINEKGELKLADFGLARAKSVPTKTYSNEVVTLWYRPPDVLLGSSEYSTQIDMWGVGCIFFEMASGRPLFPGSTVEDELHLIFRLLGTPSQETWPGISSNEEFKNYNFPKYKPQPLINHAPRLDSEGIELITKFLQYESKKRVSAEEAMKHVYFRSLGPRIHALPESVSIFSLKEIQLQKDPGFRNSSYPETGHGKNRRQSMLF
# UniProt P46527, whole entry, looked up: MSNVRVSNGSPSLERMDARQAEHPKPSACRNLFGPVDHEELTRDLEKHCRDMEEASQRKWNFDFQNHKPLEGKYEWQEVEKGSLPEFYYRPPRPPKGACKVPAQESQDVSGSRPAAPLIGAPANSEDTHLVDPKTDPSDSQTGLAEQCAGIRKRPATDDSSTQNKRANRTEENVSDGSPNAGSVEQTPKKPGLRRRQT
# UniProt Q69YH5: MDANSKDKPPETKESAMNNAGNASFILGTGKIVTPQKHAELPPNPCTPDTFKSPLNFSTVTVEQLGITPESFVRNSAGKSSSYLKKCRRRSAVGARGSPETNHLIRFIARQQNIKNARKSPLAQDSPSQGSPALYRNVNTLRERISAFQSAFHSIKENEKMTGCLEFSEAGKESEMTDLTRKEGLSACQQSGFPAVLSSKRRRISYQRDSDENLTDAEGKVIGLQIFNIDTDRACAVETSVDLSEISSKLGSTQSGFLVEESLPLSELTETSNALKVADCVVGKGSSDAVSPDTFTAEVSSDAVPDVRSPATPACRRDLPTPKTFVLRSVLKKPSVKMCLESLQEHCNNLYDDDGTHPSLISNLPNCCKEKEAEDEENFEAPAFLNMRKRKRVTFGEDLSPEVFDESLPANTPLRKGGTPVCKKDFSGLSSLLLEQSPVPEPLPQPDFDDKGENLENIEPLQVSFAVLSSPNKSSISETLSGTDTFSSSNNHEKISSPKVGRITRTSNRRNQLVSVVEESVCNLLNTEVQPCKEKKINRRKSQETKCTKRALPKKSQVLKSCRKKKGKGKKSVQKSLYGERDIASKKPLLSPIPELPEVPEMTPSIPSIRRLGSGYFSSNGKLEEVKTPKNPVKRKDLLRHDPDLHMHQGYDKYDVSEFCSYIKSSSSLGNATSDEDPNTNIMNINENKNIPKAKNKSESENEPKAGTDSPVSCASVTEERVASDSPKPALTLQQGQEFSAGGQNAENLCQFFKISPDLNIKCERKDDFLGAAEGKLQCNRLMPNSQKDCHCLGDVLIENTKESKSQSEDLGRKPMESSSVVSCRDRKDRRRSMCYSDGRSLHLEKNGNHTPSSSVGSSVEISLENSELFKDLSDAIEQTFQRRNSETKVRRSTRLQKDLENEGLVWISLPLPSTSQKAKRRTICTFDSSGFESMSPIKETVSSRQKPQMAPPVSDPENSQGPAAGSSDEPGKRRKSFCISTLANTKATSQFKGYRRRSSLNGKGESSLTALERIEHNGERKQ
# UniProt Q00587: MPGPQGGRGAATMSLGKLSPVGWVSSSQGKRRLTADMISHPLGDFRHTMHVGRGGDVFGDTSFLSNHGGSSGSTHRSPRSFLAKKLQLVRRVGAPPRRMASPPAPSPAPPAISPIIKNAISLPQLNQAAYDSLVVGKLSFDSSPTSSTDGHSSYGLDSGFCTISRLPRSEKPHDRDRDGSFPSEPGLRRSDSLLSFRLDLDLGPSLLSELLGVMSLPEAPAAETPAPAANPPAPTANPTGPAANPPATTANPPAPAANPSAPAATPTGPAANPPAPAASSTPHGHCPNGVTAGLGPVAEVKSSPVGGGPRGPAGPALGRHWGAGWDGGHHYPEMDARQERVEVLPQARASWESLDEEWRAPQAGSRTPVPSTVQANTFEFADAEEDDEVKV
# UniProt P21127: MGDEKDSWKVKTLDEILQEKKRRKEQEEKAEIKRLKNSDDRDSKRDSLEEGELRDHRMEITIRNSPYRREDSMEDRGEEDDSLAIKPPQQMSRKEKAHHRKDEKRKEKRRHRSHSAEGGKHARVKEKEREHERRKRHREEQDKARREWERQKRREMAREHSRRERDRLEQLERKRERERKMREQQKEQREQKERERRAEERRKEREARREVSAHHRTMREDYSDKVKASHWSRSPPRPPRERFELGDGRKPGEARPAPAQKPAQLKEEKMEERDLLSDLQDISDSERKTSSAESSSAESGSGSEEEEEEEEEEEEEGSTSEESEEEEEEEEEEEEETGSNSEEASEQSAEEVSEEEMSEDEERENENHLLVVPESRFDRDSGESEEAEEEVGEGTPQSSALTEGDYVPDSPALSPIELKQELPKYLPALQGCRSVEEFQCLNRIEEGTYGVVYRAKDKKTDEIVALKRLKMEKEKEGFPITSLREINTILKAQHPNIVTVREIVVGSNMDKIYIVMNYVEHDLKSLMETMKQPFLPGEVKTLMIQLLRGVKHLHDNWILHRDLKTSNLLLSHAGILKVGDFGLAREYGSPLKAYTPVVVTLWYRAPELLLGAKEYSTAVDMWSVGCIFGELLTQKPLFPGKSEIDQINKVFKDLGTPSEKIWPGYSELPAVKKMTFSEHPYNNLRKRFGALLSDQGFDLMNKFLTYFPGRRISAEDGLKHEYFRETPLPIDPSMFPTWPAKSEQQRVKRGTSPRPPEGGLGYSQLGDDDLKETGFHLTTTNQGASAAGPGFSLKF
# UniProt O14735: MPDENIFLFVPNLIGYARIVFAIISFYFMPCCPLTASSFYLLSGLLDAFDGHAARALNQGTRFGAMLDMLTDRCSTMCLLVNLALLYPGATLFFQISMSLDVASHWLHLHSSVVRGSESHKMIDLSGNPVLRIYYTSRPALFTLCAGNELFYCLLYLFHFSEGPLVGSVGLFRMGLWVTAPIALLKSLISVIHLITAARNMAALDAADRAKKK
# This is one part of the list.
# Compound: c1ccc([C@@H]2C[C@H]2NC2CCNCC2)cc1
# Assay: log2 fold change, soluble protein after heating vs DMSO (PISA); higher = thermal stabilisation; K562 lysate, 10 uM; active = over 0.2 and 3.5 SD of the protein, either way, in both replicates (recomputed)
# In short: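 To prepare the extract, K562 pellets were dounce-homogenised in PBS pH 7.4 with 1 mM MgCl2, giving crude material at 1 mg/mL protein. This was treated with 10 μM compound for 30 min, then heated in aliquots for 3 min over 48°C-58°C before pooling and addition of NP-40 to 0.5% at 4°C. Centrifugation at 21,000xg for 90 min left soluble protein in the supernatant, which TMTpro 16plex LC-MS/MS quantified with equalised channel sums. Results are log-two fold changes in thermal stability compared with solvent controls, from duplicates.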
row,Target,log2 fold change
1,CDC7 (UniProt O00311),inactive: 0.008
2,CDYL (UniProt Q9Y232),inactive: -0.059
3,CDK2AP2 (UniProt O75956),inactive: -0.216
4,CEP44 (UniProt Q9C0F1),inactive: 0.019
5,CDC123 (UniProt O75794),inactive: 0.004
6,CDC42BPB (UniProt Q9Y5S2),inactive: 0.169
7,CDK2AP1 (UniProt O14519),inactive: -0.045
8,CEP76 (UniProt Q8TAP6),inactive: -0.027
9,CDK6 (UniProt Q00534),inactive: 0.032
10,CDK17 isoform 2 (UniProt Q00537),inactive: -0.146
11,CDK5RAP2 (UniProt Q96SN8),inactive: 0.072
12,CDKN1B (UniProt P46527),inactive: 0.02
13,CDCA2 (UniProt Q69YH5),inactive: 0.077
14,CDC42EP1 (UniProt Q00587),inactive: 0
15,CDK11B (UniProt P21127),inactive: -0.001
16,CDIPT (UniProt O14735),inactive: -0.013

# 2 records picked at random from those above:
row,Target,log2 fold change
12,CDKN1B (UniProt P46527),inactive: 0.02
6,CDC42BPB (UniProt Q9Y5S2),inactive: 0.169
